# This is one part of the list.
# B1: DCIR1 (Mus musculus), Q9QZ15 (protein)
# chain: MASEITYAEVKFKNESNSLHTYSESPAAPREKPIRDLRKPGSPSLLLTSLMLLLLLLAITFLVAFIIYFQKYSQLLEEKKAAKNIMHNELNCTKSVSPMEDKVWSCCPKDWRLFGSHCYLVPTVSSSASWNKSEENCSRMGAHLVVIQSQEEQDFITGILDTHAAYFIGLWDTGHRQWQWVDQTPYEESITFWHNGEPSSGNEKCATIIYRWKTGWGWNDISCSLKQKSVCQMKKINL
# Columns and labels:
# Assay in all cases: glycan array binding signal (z-score within array); higher = stronger binding
# Settings in all cases: glycan notation: IUPAC condensed, linker removed
# [1] = biological target: Fuc(a1-2)Gal(b1-4)GlcNAc(b1-3)Gal(b1-4)GlcNAc(b1-2)Man(a1-3)[Fuc(a1-2)Gal(b1-4)GlcNAc(b1-3)Gal(b1-4)GlcNAc(b1-2)Man(a1-6)]Man(b1-4)GlcNAc(b1-4)GlcNAc
# How it was run: (§1)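 Glycan array binding is given as a within-array Z-score, which can be read as non-binding when negative. The arrays, 3228 of them, came from the Consortium for Functional Glycomics database and were retained only where the protein sequence was available. Z-scores were averaged across arrays of the same protein sequence at different concentrations or buffers and across linkers.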
# [2] = biological target: Fuc(a1-2)Gal(b1-4)GlcNAc(b1-3)Gal(b1-4)GlcNAc(b1-3)Gal(b1-4)GlcNAc
# How it was run: as §1
# [3] = biological target: Fuc(a1-2)Gal(b1-4)GlcNAc(b1-3)GalNAc
# How it was run: as §1
# [4] = biological target: Fuc(a1-2)Gal(b1-4)GlcNAc(b1-3)[Fuc(a1-2)Gal(b1-4)GlcNAc(b1-6)]GalNAc
# How it was run: as §1
# [5] = biological target: Fuc(a1-2)Gal(b1-4)GlcNAc(b1-3)[Fuc(a1-3)[Gal(b1-4)]GlcNAc(b1-6)]Gal(b1-4)Glc
# How it was run: as §1
# [6] = biological target: Fuc(a1-2)Gal(b1-4)GlcNAc(b1-6)GalNAc
# How it was run: as §1
# [7] = biological target: Fuc(a1-2)Gal(b1-4)GlcNAc6S
# How it was run: as §1
# [8] = biological target: Fuc(a1-2)Gal(b1-4)[Fuc(a1-3)]GlcNAc
# How it was run: as §1
# [9] = biological target: Fuc(a1-2)Gal(b1-4)[Fuc(a1-3)]GlcNAc(b1-2)Man(a1-3)[Fuc(a1-2)Gal(b1-4)[Fuc(a1-3)]GlcNAc(b1-2)Man(a1-6)]Man(b1-4)GlcNAc(b1-4)[Fuc(a1-6)]GlcNAc
# How it was run: as §1
# [10] = biological target: Fuc(a1-2)Gal(b1-4)[Fuc(a1-3)]GlcNAc(b1-2)[Fuc(a1-2)Gal(b1-4)[Fuc(a1-3)]GlcNAc(b1-4)]Man(a1-3)[Fuc(a1-2)Gal(b1-4)[Fuc(a1-3)]GlcNAc(b1-2)Man(a1-6)]Man(b1-4)GlcNAc(b1-4)GlcNAc
# How it was run: as §1
# [11] = biological target: Fuc(a1-2)Gal(b1-4)[Fuc(a1-3)]GlcNAc(b1-3)Gal(b1-4)[Fuc(a1-3)]GlcNAc
# How it was run: as §1
# [12] = biological target: Fuc(a1-2)Gal(b1-4)[Fuc(a1-3)]GlcNAc(b1-3)Gal(b1-4)[Fuc(a1-3)]GlcNAc(b1-3)Gal(b1-4)[Fuc(a1-3)]GlcNAc
# How it was run: as §1
# [13] = biological target: Fuc(a1-2)Gal(b1-4)[Fuc(a1-3)]GlcNAc(b1-3)GalNAc
# How it was run: as §1
# [14] = biological target: Fuc(a1-2)Gal(b1-4)[Fuc(a1-3)]GlcNAc(b1-3)[Neu5Ac(a2-6)Gal(b1-4)GlcNAc(b1-6)]Gal(b1-4)Glc
# How it was run: as §1
# [15] = biological target: Fuc(a1-2)Gal3S(b1-4)GlcNAc
# How it was run: as §1
# [16] = biological target: Fuc(a1-2)Gal6S(b1-3)GlcNAc
# How it was run: as §1
# [17] = biological target: Fuc(a1-2)Gal6S(b1-3)GlcNAc6S
# How it was run: as §1
# Fuc(a1-2)Gal6S(b1-4)Glc = biological target: Fuc(a1-2)Gal6S(b1-4)Glc
# How it was run: as §1
# [18] = biological target: Fuc(a1-2)Gal6S(b1-4)Glc6S
# How it was run: as §1
# Fuc(a1-2)[Gal(a1-3)]Gal = biological target: Fuc(a1-2)[Gal(a1-3)]Gal
# How it was run: as §1
# [19] = biological target: Fuc(a1-2)[Gal(a1-3)]Gal(b1-3)GalNAc
# How it was run: as §1
# [20] = biological target: Fuc(a1-2)[Gal(a1-3)]Gal(b1-3)GalNAc(b1-3)Gal(a1-4)Gal(b1-4)Glc
# How it was run: as §1
# [21] = biological target: Fuc(a1-2)[Gal(a1-3)]Gal(b1-3)GlcNAc
# How it was run: as §1
# [22] = biological target: Fuc(a1-2)[Gal(a1-3)]Gal(b1-3)GlcNAc(b1-2)Man(a1-3)[Fuc(a1-2)[Gal(a1-3)]Gal(b1-3)GlcNAc(b1-2)Man(a1-6)]Man(b1-4)GlcNAc(b1-4)GlcNAc
# How it was run: as §1
# [23] = biological target: Fuc(a1-2)[Gal(a1-3)]Gal(b1-3)GlcNAc(b1-2)Man(a1-3)[Fuc(a1-2)[Gal(a1-3)]Gal(b1-3)GlcNAc(b1-2)Man(a1-6)]Man(b1-4)GlcNAc(b1-4)[Fuc(a1-6)]GlcNAc
# How it was run: as §1
# [24] = biological target: Fuc(a1-2)[Gal(a1-3)]Gal(b1-3)GlcNAc(b1-3)GalNAc
# How it was run: as §1
# [25] = biological target: Fuc(a1-2)[Gal(a1-3)]Gal(b1-3)GlcNAc(b1-6)GalNAc
# How it was run: as §1
# [26] = biological target: Fuc(a1-2)[Gal(a1-3)]Gal(b1-4)Glc
# How it was run: as §1
# [27] = biological target: Fuc(a1-2)[Gal(a1-3)]Gal(b1-4)GlcNAc
# How it was run: as §1
# [28] = biological target: Fuc(a1-2)[Gal(a1-3)]Gal(b1-4)GlcNAc(b1-2)Man
# How it was run: as §1
binder,measurement,setting,value
B1,glycan array binding signal (z-score),[1],0.837
same,glycan array binding signal (z-score),[2],-0.824
same,glycan array binding signal (z-score),[3],0.788
same,glycan array binding signal (z-score),[4],0.614
same,glycan array binding signal (z-score),[5],-1.01
same,glycan array binding signal (z-score),[6],3.97
same,glycan array binding signal (z-score),[7],-0.09
same,glycan array binding signal (z-score),[8],-0.326
same,glycan array binding signal (z-score),[9],1.86
same,glycan array binding signal (z-score),[10],2.36
same,glycan array binding signal (z-score),[11],-1.12
same,glycan array binding signal (z-score),[12],0.301
same,glycan array binding signal (z-score),[13],0.489
same,glycan array binding signal (z-score),[14],-0.921
same,glycan array binding signal (z-score),[15],-0.361
same,glycan array binding signal (z-score),[16],-0.094
same,glycan array binding signal (z-score),[17],1.29
same,glycan array binding signal (z-score),Fuc(a1-2)Gal6S(b1-4)Glc,1.87
same,glycan array binding signal (z-score),[18],0.976
same,glycan array binding signal (z-score),Fuc(a1-2)[Gal(a1-3)]Gal,0.657
same,glycan array binding signal (z-score),[19],0.389
same,glycan array binding signal (z-score),[20],-1.1
same,glycan array binding signal (z-score),[21],1.87
same,glycan array binding signal (z-score),[22],0.553
same,glycan array binding signal (z-score),[23],0.324
same,glycan array binding signal (z-score),[24],-0.516
same,glycan array binding signal (z-score),[25],0.938
same,glycan array binding signal (z-score),[26],1.2
same,glycan array binding signal (z-score),[27],-0.066
same,glycan array binding signal (z-score),[28],-0.077

# An excerpt of these results, tab-delimited:
binder	measurement	setting	value
B1	glycan array binding signal (z-score)	[5]	-1.01
same	glycan array binding signal (z-score)	[10]	2.36
